From patent US20240196946A1, “METABOLICALLY MODIFIED VANILLA BEANS AND METHODS FOR PRODUCING SAME” (VANILLA TECHNOLOGIES LTD., priority 2021, published 2024)

Test system: vanilla beans
Assay: Flavor test by a sensory panel (Example 5)
Settings: FIG. 7, FIG. 8, beans treated with compounds of Table 3

NCC(=O)O [Treatment 6, Glycine]
flavor perceived by sensory panel: non-vanillic flavor

O=C(O)c1ccco1 [Treatment 9, 2-Furoic acid]
flavor perceived by sensory panel: strong vanillic flavor

C[C@H](N)C(=O)O [Treatment 10, Alanine]
flavor perceived by sensory panel (listed as 10): non-vanillic flavor | flavor perceived by sensory panel (listed as alanine): mostly vinegar-sour and fruity flavor

O=C(O)[C@@H]1CCCN1 [Treatment 11, Proline]
flavor perceived by sensory panel (listed as 11): non-vanillic flavor | flavor perceived by sensory panel (listed as Proline): strong flavor of baked nuts

N[C@@H](Cc1ccc(O)cc1)C(=O)O [Treatment 8, Tyrosine]
flavor perceived by sensory panel: non-vanillic flavor
